Measurements reported in patent US8217085B2 (priority 2009, dated 2012).
Several values for one entry are separate records, joined by “and”; a condition that tells them apart may be missing. Equal entries are not always repeated. Where two headings read alike, the source gives them in different places. The source gives many values for each of these; only a part stands here.

Test system: ATCC strain 43300 Staphylococcus aureus
[1] = 10% MSM, 60 μg/ml oxacillin, 72 hours
[2] = 10% MSM, 60 μg/ml oxacillin, 96 hours
[3] = 10% MSM, 60 μg/ml oxacillin, 120 hours
[4] = 11% MSM, 12 μg/ml oxacillin, 96 hours
[5] = 11% MSM, 12 μg/ml oxacillin, 120 hours
[6] = 11% MSM, 30 μg/ml oxacillin, 96 hours
[7] = 11% MSM, 30 μg/ml oxacillin, 120 hours
[8] = 11% MSM, 60 μg/ml oxacillin, 72 hours
[9] = 11% MSM, 60 μg/ml oxacillin, 120 hours
[10] = 12% MSM, 12 μg/ml oxacillin, 96 hours
[11] = 12% MSM, 12 μg/ml oxacillin, 120 hours
[12] = 12% MSM, 30 μg/ml oxacillin, 96 hours
[13] = 12% MSM, 30 μg/ml oxacillin, 120 hours
[14] = 12% MSM, 60 μg/ml oxacillin, 96 hours
[15] = 12% MSM, 60 μg/ml oxacillin, 120 hours
[16] = 13% MSM, 12 μg/ml oxacillin, 96 hours
[17] = 13% MSM, 12 μg/ml oxacillin, 120 hours
[18] = 13% MSM, 30 μg/ml oxacillin, 96 hours
[19] = 13% MSM, 30 μg/ml oxacillin, 120 hours
[20] = 13% MSM, 60 μg/ml oxacillin, 96 hours
[21] = 13% MSM, 60 μg/ml oxacillin, 120 hours
[22] = 14% MSM, 12 μg/ml oxacillin, 96 hours
[23] = 14% MSM, 12 μg/ml oxacillin, 120 hours
[24] = 14% MSM, 30 μg/ml oxacillin, 96 hours
[25] = 14% MSM, 30 μg/ml oxacillin, 120 hours
[26] = 14% MSM, 60 μg/ml oxacillin, 120 hours
[27] = 15% MSM, 12 μg/ml oxacillin, 96 hours
[28] = 15% MSM, 12 μg/ml oxacillin, 120 hours
[29] = 15% MSM, 30 μg/ml oxacillin, 96 hours
[30] = 15% MSM, 30 μg/ml oxacillin, 120 hours
[31] = 15% MSM, 60 μg/ml oxacillin, 120 hours
[32] = 16% MSM, 12 μg/ml oxacillin, 96 hours
[33] = 16% MSM, 12 μg/ml oxacillin, 120 hours
[34] = 16% MSM, 30 μg/ml oxacillin, 120 hours
[35] = 16% MSM, 60 μg/ml oxacillin, 96 hours
[36] = 16% MSM, 60 μg/ml oxacillin, 120 hours

Structure (SMILES): CS(C)(=O)=O [MSM, methylsulfonylmethane]
- survival (10% MSM, 30 μg/ml oxacillin, 120 hours): >3.3 × 10^5 cfu/ml
- survival (10% MSM, 60 μg/ml oxacillin, 48 hours): 1.6 × 10^2 cfu/ml and 1.4 × 10^2 cfu/ml
- Average Log [1]: 2.6 Log
- survival [1]: 3.9 × 10^2 cfu/ml and 4.0 × 10^2 cfu/ml and 3.4 × 10^2 cfu/ml
- Average Log [2]: 3.6 Log
- survival [2]: 3.9 × 10^3 cfu/ml and 4.0 × 10^3 cfu/ml and 3.5 × 10^3 cfu/ml
- Average Log [3]: 4.2 Log
- survival [3]: 1.6 × 10^4 cfu/ml and 1.5 × 10^4 cfu/ml and 1.7 × 10^4 cfu/ml
- survival (11% MSM, 12 μg/ml oxacillin, 72 hours): 4.4 × 10^3 cfu/ml and 4.5 × 10^3 cfu/ml and 4.0 × 10^3 cfu/ml
- Average Log [4]: 5.5 Log
- survival [4]: >3.3 × 10^5 cfu/ml
- Average Log [5]: 5.5 Log
- survival [5]: >3.3 × 10^5 cfu/ml
- survival (11% MSM, 30 μg/ml oxacillin, 48 hours): 2.5 × 10^2 cfu/ml and 2.7 × 10^2 cfu/ml and 2.8 × 10^2 cfu/ml
- survival (11% MSM, 30 μg/ml oxacillin, 72 hours): 1.2 × 10^3 cfu/ml and 1.7 × 10^3 cfu/ml and 1.5 × 10^3 cfu/ml
- Average Log [6]: 5.5 Log
- survival [6]: >3.3 × 10^5 cfu/ml
- Average Log [7]: 5.5 Log
- survival [7]: >3.3 × 10^5 cfu/ml
- survival (11% MSM, 60 μg/ml oxacillin, 48 hours): 1.3 × 10^2 cfu/ml and 1.7 × 10^2 cfu/ml and 1.2 × 10^2 cfu/ml
- Average Log [8]: 1 Log
- survival [8]: 1.0 × 10^1 cfu/ml and 2.0 × 10^1 cfu/ml
- survival (11% MSM, 60 μg/ml oxacillin, 96 hours): 0 cfu/ml
- Average Log [9]: 0 Log
- survival [9]: 0 cfu/ml
- survival (12% MSM, 12 μg/ml oxacillin, 72 hours): 1.5 × 10^3 cfu/ml and 1.1 × 10^3 cfu/ml and 1.3 × 10^3 cfu/ml
- Average Log [10]: 3.8 Log
- survival [10]: 6.8 × 10^3 cfu/ml and 7.0 × 10^3 cfu/ml
- Average Log [11]: 5.5 Log
- survival [11]: >3.3 × 10^5 cfu/ml
- survival (12% MSM, 30 μg/ml oxacillin, 48 hours): 3.9 × 10^2 cfu/ml and 3.6 × 10^2 cfu/ml and 4.0 × 10^2 cfu/ml
- survival (12% MSM, 30 μg/ml oxacillin, 72 hours): 4.8 × 10^2 cfu/ml and 3.9 × 10^2 cfu/ml and 4.9 × 10^2 cfu/ml
- Average Log [12]: 3.7 Log
- survival [12]: 6.9 × 10^3 cfu/ml and 3.9 × 10^3 cfu/ml
- Average Log [13]: 4.7 Log
- survival [13]: 6.8 × 10^4 cfu/ml and 3.9 × 10^4 cfu/ml and 6.9 × 10^4 cfu/ml
- survival (12% MSM, 60 μg/ml oxacillin, 48 hours): 1.1 × 10^2 cfu/ml and 1.0 × 10^2 cfu/ml
- survival (12% MSM, 60 μg/ml oxacillin, 72 hours): 2.8 × 10^2 cfu/ml and 2.1 × 10^2 cfu/ml and 2.5 × 10^2 cfu/ml
- Average Log [14]: 3.5 Log
- survival [14]: 3.0 × 10^3 cfu/ml and 3.5 × 10^3 cfu/ml and 3.1 × 10^3 cfu/ml
- Average Log [15]: 4.2 Log
- survival [15]: 1.72 × 10^4 cfu/ml and 1.6 × 10^4 cfu/ml and 1.5 × 10^4 cfu/ml
- survival (13% MSM, 12 μg/ml oxacillin, 72 hours): 5.2 × 10^2 cfu/ml and 5.1 × 10^2 cfu/ml and 5.4 × 10^2 cfu/ml
- Average Log [16]: 3.2 Log
- survival [16]: 1.6 × 10^3 cfu/ml and 1.7 × 10^3 cfu/ml and 1.2 × 10^3 cfu/ml
- Average Log [17]: 3.8 Log
- survival [17]: 6.2 × 10^3 cfu/ml and 6.7 × 10^3 cfu/ml
- survival (13% MSM, 30 μg/ml oxacillin, 48 hours): 3.0 × 10^2 cfu/ml and 3.1 × 10^2 cfu/ml
- Average Log [18]: 2.5 Log
- survival [18]: 3.3 × 10^2 cfu/ml and 3.1 × 10^2 cfu/ml and 3.2 × 10^2 cfu/ml
- Average Log [19]: 3.0 Log
- survival [19]: 1.02 × 10^3 cfu/ml and 1.01 × 10^3 cfu/ml
- survival (13% MSM, 60 μg/ml oxacillin, 48 hours): 6.0 × 10^1 cfu/ml and 4.0 × 10^1 cfu/ml and 5.0 × 10^1 cfu/ml
- survival (13% MSM, 60 μg/ml oxacillin, 72 hours): 1.0 × 10^1 cfu/ml
- Average Log [20]: 1.6 Log
- survival [20]: 4.0 × 10^1 cfu/ml and 5.0 × 10^1 cfu/ml
- Average Log [21]: 0 Log
- survival [21]: 0 cfu/ml
- survival (14% MSM, 12 μg/ml oxacillin, 72 hours): 1.1 × 10^2 cfu/ml and 1.2 × 10^2 cfu/ml
- Average Log [22]: 1.8 Log
- survival [22]: 6.0 × 10^1 cfu/ml and 5.0 × 10^1 cfu/ml
- Average Log [23]: 2.0 Log
- survival [23]: 1.1 × 10^2 cfu/ml and 1.2 × 10^2 cfu/ml
- survival (14% MSM, 30 μg/ml oxacillin, 48 hours): 3.6 × 10^2 cfu/ml and 3.2 × 10^2 cfu/ml and 3.5 × 10^2 cfu/ml
- survival (14% MSM, 30 μg/ml oxacillin, 72 hours): 1.4 × 10^2 cfu/ml and 1.7 × 10^2 cfu/ml and 1.8 × 10^2 cfu/ml
- Average Log [24]: 1.7 Log
- survival [24]: 5.0 × 10^1 cfu/ml and 6.0 × 10^1 cfu/ml
- Average Log [25]: 1.3 Log
- survival [25]: 3.0 × 10^1 cfu/ml and 2.0 × 10^1 cfu/ml
- survival (14% MSM, 60 μg/ml oxacillin, 48 hours): 1.5 × 10^2 cfu/ml and 1.7 × 10^2 cfu/ml and 1.2 × 10^2 cfu/ml
- survival (14% MSM, 60 μg/ml oxacillin, 72 hours): 2.0 × 10^1 cfu/ml and 4.0 × 10^1 cfu/ml
- survival (14% MSM, 60 μg/ml oxacillin, 96 hours): 0 cfu/ml
- Average Log [26]: 0 Log
- survival [26]: 0 cfu/ml
- survival ([…]% MSM, 12 μg/ml oxacillin, 72 hours): 2.3 × 10^2 cfu/ml and 2.2 × 10^2 cfu/ml and 1.2 × 10^2 cfu/ml
- Average Log [27]: 2.1 Log
- survival [27]: 1.2 × 10^2 cfu/ml and 1.3 × 10^2 cfu/ml
- Average Log [28]: 2.0 Log
- survival [28]: 1.1 × 10^2 cfu/ml and 1.3 × 10^2 cfu/ml and 1.2 × 10^2 cfu/ml
- survival ([…]% MSM, 30 μg/ml oxacillin, 48 hours): 6.2 × 10^2 cfu/ml and 6.4 × 10^2 cfu/ml
- survival ([…]% MSM, 30 μg/ml oxacillin, 72 hours): 2.3 × 10^2 cfu/ml and 2.2 × 10^2 cfu/ml and 2.8 × 10^2 cfu/ml
- Average Log [29]: 1.9 Log
- survival [29]: 8.0 × 10^1 cfu/ml
- Average Log [30]: 0 Log
- survival [30]: 0 cfu/ml
- survival ([…]% MSM, 60 μg/ml oxacillin, 48 hours): 1.2 × 10^2 cfu/ml and 1.3 × 10^2 cfu/ml
- survival ([…]% MSM, 60 μg/ml oxacillin, 72 hours): 0 cfu/ml
- survival ([…]% MSM, 60 μg/ml oxacillin, 96 hours): 0 cfu/ml
- Average Log [31]: 0 Log
- survival [31]: 0 cfu/ml
- survival (16% MSM, 12 μg/ml oxacillin, 72 hours): 1.1 × 10^2 cfu/ml and 1.2 × 10^2 cfu/ml and 1.6 × 10^2 cfu/ml
- Average Log [32]: 2.2 Log
- survival [32]: 1.4 × 10^2 cfu/ml and 1.6 × 10^2 cfu/ml
- Average Log [33]: 1.5 Log
- survival [33]: 3.0 × 10^1 cfu/ml and 2.0 × 10^1 cfu/ml
- survival (16% MSM, 30 μg/ml oxacillin, 48 hours): 4.6 × 10^2 cfu/ml and 4.0 × 10^2 cfu/ml and 4.1 × 10^2 cfu/ml
- survival (16% MSM, 30 μg/ml oxacillin, 72 hours): 9 × 10^1 cfu/ml and 8.0 × 10^1 cfu/ml
- Average Log (16% MSM, 30 μg/ml oxacillin, 96 hours): 1.3 Log
- Average Log [34]: 1.3 Log
- survival [34]: 2.0 × 10^1 cfu/ml and 3.0 × 10^1 cfu/ml
- survival (16% MSM, 60 μg/ml oxacillin, 48 hours): 9.0 × 10^1 cfu/ml and 6.0 × 10^1 cfu/ml
- survival (16% MSM, 60 μg/ml oxacillin, 72 hours): 6.0 × 10^1 cfu/ml and 5.0 × 10^1 cfu/ml
- Average Log [35]: 1.3 Log
- survival [35]: 2.0 × 10^1 cfu/ml and 3.0 × 10^1 cfu/ml
- Average Log [36]: 0 Log
- survival [36]: 0 cfu/ml
